Data: publication PMC3362779
These are yes or no findings as the source states them, for the method shown. Binding seen in cells or lysates may run through a third protein. Binding calls can cover weak binding; strength is not graded here.

Legend:
[1] = molecular target: T1, epithelial sodium channel alpha subunit (α-ENaC) (rat (endogenous in ATII cells)) (UniProt P37089); assay: co-IP; 500 μg total protein of ATII cell lysate immunoprecipitated with anti-α-, β- or γ-ENaC antibodies at 4°C overnight, protein A/G-agarose 4 h at 4°C, four washes with lysis buffer, western blot for Nedd4-2; basal conditions, and cells treated with insulin (200 mU/L, 2 h) with or without LY294002 (10 μM) or Akt inhibitor (100 nM): co-precipitated Nedd4-2 decreased by insulin, the decrease blocked by the inhibitors
T1 sequence: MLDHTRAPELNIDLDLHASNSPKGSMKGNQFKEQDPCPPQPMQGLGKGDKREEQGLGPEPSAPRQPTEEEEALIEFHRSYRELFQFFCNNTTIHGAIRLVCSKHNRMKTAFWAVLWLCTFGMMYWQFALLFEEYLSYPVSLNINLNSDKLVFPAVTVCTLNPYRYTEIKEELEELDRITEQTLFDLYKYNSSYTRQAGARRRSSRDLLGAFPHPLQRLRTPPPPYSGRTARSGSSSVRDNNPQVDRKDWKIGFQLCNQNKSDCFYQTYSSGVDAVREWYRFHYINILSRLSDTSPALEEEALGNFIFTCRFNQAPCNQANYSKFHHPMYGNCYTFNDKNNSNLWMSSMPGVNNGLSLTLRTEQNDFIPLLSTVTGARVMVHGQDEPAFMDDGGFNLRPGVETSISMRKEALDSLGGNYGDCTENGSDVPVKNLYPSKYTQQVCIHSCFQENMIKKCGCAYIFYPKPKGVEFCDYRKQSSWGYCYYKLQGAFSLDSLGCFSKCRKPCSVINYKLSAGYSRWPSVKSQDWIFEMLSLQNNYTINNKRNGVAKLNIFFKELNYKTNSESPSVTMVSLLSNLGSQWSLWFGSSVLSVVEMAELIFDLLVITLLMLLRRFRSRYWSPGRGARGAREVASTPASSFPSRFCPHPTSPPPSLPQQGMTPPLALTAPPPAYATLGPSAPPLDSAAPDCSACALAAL

[2] = molecular target: T2, epithelial sodium channel gamma subunit (γ-ENaC) (rat (endogenous in ATII cells)) (UniProt P37091); assay: as above
T2 sequence: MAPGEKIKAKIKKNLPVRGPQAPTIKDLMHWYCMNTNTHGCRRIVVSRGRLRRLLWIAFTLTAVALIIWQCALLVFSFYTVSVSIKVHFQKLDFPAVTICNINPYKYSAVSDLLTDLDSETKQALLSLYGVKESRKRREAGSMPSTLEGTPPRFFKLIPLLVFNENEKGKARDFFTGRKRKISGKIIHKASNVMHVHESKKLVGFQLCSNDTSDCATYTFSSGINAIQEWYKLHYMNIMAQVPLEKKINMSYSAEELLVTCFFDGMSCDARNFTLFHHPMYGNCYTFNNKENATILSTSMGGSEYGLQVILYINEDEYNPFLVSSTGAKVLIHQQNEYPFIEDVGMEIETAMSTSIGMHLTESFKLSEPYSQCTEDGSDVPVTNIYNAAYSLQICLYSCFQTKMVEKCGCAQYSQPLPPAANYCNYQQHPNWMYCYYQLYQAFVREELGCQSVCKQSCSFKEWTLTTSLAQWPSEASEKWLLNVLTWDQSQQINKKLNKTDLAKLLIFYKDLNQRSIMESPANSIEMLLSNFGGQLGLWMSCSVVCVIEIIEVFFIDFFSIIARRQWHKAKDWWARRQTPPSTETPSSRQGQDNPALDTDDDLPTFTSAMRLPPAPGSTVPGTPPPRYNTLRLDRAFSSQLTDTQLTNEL

- binding [1]: binds
- binding [2]: binds
Substance: Nedd4-2 (neuronal expressed developmentally downregulated 4-2) (rat (endogenous in ATII cells))
